PubChem BioAssay AID1671195 | Yale University | 2021
Here is one part, drawn at random, of about 22,000 deposited reagents. About 1,510 of them (6.9%) were called active. 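Active includes knockdowns raising or lowering LDL uptake; positive z-scores mean more uptake, negative mean less.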 Entries without a mark were called inactive.

Test: 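Genes whose knockdown alters LDL uptake in liver cancer cells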 (primary screen)
Cells: human Huh7 hepatoma cells
Knock-down reagent: siRNA pool against human genes, 18 nM
Duration: about 2 to 2.5 days of knockdown, then 8 h LDL uptake
Conditions: DiI-labelled LDL at 30 µg/ml for 8 h, in lipoprotein-deficient serum medium
Detection: 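Fluorescent LDL signal imaged in cells, scaled to the plate median, robust z-score for each replicate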
Reading the numbers: robust z-score: higher = more LDL uptake after knockdown
Call rule: 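Active when two or more replicates show a robust z-score above 2 or below -2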

target gene,"robust z-score, replicate 1","robust z-score, replicate 2","robust z-score, replicate 3"
INSL5,1.2,0.277,0.626
GCA,2.58,1.29,1.31
HNRNPUL1,-0.178,-0.232,0.0985
LYZL4,0.836,0.554,0.774
ILF3,-0.819,-0.444,-0.766
GNB2,1.4,1.91,1.85
HBB,2.27,-0.36,-2.61
LOC730133,0.808,0.481,-0.201
SLC5A7,-0.518,-0.169,-0.337
SEMA4C,-0.278,-0.434,0.64
LOC441740 (retired record),0.00927,-0.281,-0.439
FBH1,1.09,1.03,1.45
ZNF287,1.2,1,0.721
ASAH1,-0.116,0.198,0.0979
DHTKD1,-1.74,-1.89,-2.1
PRG2,-0.978,1.67,-1.12
CRB2,-1.37,-1.14,-1.42
NLRX1,-0.0135,-0.478,-0.161
LOC440480 (retired record),-0.747,-0.973,-0.838
TYW1,-0.807,-1.12,-2.25
CDYL2,-0.418,-0.785,-0.438
FMR1NB,-1.12,-0.91,-1.2
CCDC122,-0.0451,0.367,-0.187
C12orf60,-0.188,0.621,0.767
NFATC2,0.359,0.285,0.188
POM121L8P,-0.146,-0.412,-2.01
AQP7,-0.359,-0.332,-0.769
STEAP3,-0.703,1.75,-0.013
IL31RA,-0.473,0.429,-0.216
VN1R1,0.167,-0.562,0.125
SATB1,0.484,0.672,0.0368
UCK2,2.22,-0.489,1.76
SEMA3D,0.164,2.51,1.27
TIAM1-AS1,-0.948,-0.943,-0.962
WASHC4,-0.365,0.811,-0.934
RCVRN,0.397,0.445,0.215
SPATA13,0.61,0.311,0.409
FLJ44076 (retired record),-1.08,-1.25,-1.04
LOC387686 (retired record),-0.478,-0.111,0.124
ZBTB11,-0.613,-0.614,-0.37
C10orf90,0.133,0.401,0.545
FADD,0.0723,0.491,-0.481
PDE6G,-1.98,-1.1,-1.36
BCL7C,0.21,-0.407,0.858
MPV17L2,-1.1,-0.724,-1.05
TMPO,0.934 (active),2.75,2.64
GRK4,-1.35,-1.53,-1.62
SPCS1,0.779,-0.742,0.408
KIF2A,1.25,2.02,0.694
WDR72,1.61 (active),1.99,2.34
KAT2A,-1.37,-0.211,-1.21
XDH,0.322,-0.481,0.581
STRIP2,-0.952,-1.07,-1.08
EXTL3-AS1,-0.42,-0.312,-0.158
ATP5F1D,-0.991,-1.08,-0.976
TPTE,-0.781,-0.241,-0.571
CENPV,-1.85,-1.95,-1.52
TOM1L2,-0.208,-0.344,0.402
PRAMEF2,-0.212,0.156,0.0328
EPC1,0.183,0.742,0.664
HSF1,-1.64,-0.0889,-1.36
FAM177B,-1.07,-1.15,-1.26
EPHX1,-0.215,0.0344,0.207
HBS1L,1.47,0.79,1.16
LOC390020 (retired record),-0.0588,-0.218,-0.49
SEPTIN6,1.14,-0.323,0.285
PRB4,1.43,0.729,1.54
HEBP2,2.61,-0.0929,0.696

Reformatted: 6 of the entries above.
TYW1 | robust z-score, replicate 1 = -0.807; robust z-score, replicate 2 = -1.12; robust z-score, replicate 3 = -2.25
CDYL2 | robust z-score, replicate 1 = -0.418; robust z-score, replicate 2 = -0.785; robust z-score, replicate 3 = -0.438
FMR1NB | robust z-score, replicate 1 = -1.12; robust z-score, replicate 2 = -0.91; robust z-score, replicate 3 = -1.2
CCDC122 | robust z-score, replicate 1 = -0.0451; robust z-score, replicate 2 = 0.367; robust z-score, replicate 3 = -0.187
C12orf60 | robust z-score, replicate 1 = -0.188; robust z-score, replicate 2 = 0.621; robust z-score, replicate 3 = 0.767
NFATC2 | robust z-score, replicate 1 = 0.359; robust z-score, replicate 2 = 0.285; robust z-score, replicate 3 = 0.188
